Data as given in the supplement of paper PMC12067093, “Discovery and optimisation of a covalent ligand for TRIM25 and its application to targeted protein ubiquitination” (Chemical Science, 2025).
This is one part of the list.

Protein sequences, listed by entry. Tags and fused reporters are not part of them. Lines headed by an entry give the natural chain unless they say otherwise; changes in a name come on top.
UniProt Q9NPD3, whole entry: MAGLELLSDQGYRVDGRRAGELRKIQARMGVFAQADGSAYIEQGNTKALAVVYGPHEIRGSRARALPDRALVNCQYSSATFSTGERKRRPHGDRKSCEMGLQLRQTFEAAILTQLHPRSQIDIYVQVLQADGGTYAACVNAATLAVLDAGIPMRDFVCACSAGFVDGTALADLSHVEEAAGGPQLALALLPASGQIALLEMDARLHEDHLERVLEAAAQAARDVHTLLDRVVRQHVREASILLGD
UniProt Q9NWS6: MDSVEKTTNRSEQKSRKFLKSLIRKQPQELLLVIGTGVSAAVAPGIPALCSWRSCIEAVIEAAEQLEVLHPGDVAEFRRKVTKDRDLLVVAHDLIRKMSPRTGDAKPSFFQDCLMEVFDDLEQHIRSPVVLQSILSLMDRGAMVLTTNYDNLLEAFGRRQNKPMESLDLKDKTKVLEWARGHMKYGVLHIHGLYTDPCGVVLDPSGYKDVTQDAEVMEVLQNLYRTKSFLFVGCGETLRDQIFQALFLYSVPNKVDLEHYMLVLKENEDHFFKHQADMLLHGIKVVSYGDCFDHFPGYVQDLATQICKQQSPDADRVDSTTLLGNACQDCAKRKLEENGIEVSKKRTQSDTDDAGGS
UniProt Q9Y3B2, whole entry, looked up: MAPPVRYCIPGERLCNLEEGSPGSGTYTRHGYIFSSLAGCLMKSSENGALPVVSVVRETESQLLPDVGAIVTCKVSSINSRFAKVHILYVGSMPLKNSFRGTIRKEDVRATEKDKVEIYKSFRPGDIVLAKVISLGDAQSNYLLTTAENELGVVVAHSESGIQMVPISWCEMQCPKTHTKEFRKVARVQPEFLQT
UniProt Q9BPY3: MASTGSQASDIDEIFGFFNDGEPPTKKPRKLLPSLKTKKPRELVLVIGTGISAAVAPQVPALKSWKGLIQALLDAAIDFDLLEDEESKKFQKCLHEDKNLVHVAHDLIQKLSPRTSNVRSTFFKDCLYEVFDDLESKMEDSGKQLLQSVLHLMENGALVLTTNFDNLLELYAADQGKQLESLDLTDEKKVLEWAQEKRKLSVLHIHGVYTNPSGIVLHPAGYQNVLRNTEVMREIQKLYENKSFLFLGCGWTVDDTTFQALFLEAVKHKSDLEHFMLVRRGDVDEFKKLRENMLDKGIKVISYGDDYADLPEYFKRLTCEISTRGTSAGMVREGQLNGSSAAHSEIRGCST
UniProt O60645: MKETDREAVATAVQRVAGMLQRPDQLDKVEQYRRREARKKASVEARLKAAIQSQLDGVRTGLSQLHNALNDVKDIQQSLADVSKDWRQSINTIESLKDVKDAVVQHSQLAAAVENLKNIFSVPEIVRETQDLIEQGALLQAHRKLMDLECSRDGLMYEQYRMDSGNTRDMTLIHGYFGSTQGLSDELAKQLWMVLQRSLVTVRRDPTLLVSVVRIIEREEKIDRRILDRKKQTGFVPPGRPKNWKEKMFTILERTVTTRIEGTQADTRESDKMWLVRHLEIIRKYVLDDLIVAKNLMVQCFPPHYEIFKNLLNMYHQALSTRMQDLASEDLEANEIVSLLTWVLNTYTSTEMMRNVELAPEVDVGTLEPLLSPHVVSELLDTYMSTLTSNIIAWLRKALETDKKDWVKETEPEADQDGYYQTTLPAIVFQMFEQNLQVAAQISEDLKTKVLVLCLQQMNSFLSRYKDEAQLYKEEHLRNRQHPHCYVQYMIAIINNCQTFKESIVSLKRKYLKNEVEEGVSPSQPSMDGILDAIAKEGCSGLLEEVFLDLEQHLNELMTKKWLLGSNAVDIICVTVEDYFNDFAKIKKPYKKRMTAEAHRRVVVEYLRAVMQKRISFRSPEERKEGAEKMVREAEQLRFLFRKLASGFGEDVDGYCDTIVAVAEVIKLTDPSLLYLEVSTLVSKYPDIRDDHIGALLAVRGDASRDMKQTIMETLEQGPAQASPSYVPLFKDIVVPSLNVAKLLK
UniProt Q9BSJ8: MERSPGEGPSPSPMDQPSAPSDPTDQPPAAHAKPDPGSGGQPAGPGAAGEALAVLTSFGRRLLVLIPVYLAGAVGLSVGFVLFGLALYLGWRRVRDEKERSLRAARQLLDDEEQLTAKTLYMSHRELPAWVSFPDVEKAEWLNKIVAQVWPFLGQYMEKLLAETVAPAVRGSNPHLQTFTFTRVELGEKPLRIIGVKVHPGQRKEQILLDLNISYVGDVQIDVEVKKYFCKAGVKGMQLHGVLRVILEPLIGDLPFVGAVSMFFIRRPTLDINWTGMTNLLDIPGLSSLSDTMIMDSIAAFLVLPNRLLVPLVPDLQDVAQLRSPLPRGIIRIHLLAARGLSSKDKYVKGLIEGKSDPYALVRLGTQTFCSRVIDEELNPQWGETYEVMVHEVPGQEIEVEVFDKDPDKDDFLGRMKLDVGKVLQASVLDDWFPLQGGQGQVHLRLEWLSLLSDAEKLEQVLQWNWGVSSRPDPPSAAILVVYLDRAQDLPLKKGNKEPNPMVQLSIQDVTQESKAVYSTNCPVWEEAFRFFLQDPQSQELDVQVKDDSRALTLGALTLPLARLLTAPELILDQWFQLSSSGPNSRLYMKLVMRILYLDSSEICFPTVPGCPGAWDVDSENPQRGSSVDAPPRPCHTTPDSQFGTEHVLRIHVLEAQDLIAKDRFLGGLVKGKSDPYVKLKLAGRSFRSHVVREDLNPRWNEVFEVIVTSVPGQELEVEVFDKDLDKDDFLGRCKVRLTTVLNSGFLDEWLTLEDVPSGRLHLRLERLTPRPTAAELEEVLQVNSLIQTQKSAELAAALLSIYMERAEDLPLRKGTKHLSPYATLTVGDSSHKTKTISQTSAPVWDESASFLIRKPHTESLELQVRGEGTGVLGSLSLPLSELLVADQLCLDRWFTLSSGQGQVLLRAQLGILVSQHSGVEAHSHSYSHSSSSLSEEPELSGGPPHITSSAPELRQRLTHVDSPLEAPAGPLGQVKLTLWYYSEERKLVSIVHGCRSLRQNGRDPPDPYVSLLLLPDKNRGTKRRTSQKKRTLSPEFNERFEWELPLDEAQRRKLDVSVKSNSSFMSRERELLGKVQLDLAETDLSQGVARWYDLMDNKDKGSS
UniProt P00488: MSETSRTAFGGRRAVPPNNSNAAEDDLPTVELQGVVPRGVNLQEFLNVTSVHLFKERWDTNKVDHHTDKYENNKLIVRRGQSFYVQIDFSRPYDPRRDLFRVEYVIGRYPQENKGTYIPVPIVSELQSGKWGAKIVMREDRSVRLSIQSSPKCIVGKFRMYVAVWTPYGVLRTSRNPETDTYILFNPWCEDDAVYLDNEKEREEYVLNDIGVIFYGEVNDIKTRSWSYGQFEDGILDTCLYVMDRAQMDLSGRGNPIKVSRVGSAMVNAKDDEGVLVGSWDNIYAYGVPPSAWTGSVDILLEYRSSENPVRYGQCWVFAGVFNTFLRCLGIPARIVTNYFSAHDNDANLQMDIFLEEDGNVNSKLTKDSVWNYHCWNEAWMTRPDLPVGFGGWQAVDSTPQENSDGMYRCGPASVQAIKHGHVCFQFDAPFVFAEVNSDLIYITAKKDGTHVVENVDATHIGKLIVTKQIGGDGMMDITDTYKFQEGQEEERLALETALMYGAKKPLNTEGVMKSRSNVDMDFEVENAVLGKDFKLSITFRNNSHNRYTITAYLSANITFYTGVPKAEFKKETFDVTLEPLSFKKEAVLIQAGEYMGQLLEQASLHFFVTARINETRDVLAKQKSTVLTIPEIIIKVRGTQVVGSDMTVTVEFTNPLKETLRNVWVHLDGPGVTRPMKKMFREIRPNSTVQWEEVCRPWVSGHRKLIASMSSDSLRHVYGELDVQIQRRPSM
UniProt Q6P587: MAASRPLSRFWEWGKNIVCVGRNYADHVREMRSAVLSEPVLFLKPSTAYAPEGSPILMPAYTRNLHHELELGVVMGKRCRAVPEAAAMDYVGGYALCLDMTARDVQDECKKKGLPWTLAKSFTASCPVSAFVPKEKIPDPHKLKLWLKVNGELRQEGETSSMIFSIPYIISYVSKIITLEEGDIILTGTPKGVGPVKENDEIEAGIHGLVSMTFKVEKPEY
UniProt Q5FWF5: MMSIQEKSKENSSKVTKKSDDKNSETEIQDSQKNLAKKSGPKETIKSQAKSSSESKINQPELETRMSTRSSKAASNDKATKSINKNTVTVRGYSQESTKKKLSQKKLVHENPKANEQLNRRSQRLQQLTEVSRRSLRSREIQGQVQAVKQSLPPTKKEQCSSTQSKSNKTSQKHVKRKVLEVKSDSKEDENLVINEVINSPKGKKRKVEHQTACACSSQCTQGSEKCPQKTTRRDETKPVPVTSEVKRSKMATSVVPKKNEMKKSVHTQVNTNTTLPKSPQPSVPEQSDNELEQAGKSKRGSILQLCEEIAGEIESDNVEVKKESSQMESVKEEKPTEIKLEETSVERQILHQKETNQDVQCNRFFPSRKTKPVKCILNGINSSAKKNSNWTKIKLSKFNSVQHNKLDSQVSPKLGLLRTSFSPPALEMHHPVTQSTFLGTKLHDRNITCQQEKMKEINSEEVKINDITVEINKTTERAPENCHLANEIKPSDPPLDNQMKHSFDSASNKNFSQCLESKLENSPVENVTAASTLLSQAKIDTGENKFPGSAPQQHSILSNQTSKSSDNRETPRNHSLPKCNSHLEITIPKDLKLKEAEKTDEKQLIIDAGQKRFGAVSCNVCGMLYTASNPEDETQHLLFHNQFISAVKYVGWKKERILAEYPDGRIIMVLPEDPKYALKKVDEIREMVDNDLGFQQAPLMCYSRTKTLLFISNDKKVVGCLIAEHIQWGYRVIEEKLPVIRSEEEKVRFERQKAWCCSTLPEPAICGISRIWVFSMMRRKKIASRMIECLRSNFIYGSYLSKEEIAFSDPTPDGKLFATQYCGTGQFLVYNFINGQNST
UniProt Q96EK7: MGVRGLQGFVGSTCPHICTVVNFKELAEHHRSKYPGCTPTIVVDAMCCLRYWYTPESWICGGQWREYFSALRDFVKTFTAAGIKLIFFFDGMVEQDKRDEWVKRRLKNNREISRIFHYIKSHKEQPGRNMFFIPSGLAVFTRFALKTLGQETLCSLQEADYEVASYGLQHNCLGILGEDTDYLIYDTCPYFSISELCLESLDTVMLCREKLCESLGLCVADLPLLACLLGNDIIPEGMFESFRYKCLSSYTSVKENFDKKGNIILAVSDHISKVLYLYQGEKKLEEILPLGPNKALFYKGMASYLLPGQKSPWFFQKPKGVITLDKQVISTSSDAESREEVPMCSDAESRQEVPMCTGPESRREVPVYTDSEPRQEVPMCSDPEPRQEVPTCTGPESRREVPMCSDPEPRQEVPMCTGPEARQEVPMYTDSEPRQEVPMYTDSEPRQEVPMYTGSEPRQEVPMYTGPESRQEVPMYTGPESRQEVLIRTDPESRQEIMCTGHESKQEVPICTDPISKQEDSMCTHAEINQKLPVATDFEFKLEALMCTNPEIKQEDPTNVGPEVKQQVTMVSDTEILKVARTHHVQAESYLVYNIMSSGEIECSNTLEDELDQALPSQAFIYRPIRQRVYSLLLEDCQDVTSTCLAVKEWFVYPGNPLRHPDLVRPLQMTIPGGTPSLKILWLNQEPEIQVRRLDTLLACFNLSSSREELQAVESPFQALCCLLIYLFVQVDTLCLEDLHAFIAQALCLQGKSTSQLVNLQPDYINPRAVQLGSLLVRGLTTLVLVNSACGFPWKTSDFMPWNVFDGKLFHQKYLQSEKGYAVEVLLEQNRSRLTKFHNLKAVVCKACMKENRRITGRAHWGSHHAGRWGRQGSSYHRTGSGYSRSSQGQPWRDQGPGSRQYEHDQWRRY
UniProt Q9NQT4, whole entry, looked up: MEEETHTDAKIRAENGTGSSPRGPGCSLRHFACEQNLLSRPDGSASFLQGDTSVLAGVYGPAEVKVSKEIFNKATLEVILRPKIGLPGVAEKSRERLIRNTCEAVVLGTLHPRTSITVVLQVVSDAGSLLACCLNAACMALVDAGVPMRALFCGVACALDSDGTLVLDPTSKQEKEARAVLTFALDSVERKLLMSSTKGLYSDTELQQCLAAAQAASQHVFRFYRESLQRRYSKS
UniProt Q15024, whole entry, looked up: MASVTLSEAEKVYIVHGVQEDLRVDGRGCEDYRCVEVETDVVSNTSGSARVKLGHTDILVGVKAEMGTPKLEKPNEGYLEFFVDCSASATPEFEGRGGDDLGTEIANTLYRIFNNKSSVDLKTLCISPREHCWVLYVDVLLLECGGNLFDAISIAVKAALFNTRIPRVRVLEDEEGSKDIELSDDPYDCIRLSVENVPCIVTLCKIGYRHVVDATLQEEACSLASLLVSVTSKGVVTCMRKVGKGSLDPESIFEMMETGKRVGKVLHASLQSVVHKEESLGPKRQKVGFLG

Compound: Cc1cc(ccc1-c1ccccc1)C(=O)N1CCCN(CC1)C(=O)CCl [compound 10]
Assay: probe-labelled cysteine peptide fold change vs DMSO (competition) (log2 fold change); higher = less target engagement (more negative = stronger competition)
Settings: THP-1, incubation time: 4 h
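Note: competitive profiling in live THP-1 cells: cysteine peptides tagged with an iodoacetamide desthiobiotin (IA-DTB) probe, intensity after compound treatment relative to DMSO-treated cells.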

Target | probe-labelled cysteine peptide fold change (10 µM) | probe-labelled cysteine peptide fold change (50 µM)
EXOSC4_Q9NPD3_97_SCEMGLQLR (UniProt Q9NPD3) | -0.0727 | -0.136
FAM118A_Q9NWS6_55_SCIEAVIEAAEQLEVLHPGDVAEFR (UniProt Q9NWS6) | -0.0349 | 0.184
EXOSC1_Q9Y3B2_73_ETESQLLPDVGAIVTCK (UniProt Q9Y3B2) | -0.0568 | 0.13
FAM118B_Q9BPY3_126_DCLYEVFDDLESK (UniProt Q9BPY3) | -0.243 | 0.086
EXOC3_O60645_161_KLMDLECSR (UniProt O60645) | -0.119 | -0.681
ESYT1_Q9BSJ8_635_GSSVDAPPRPCHTTPDSQFGTEHVLR (UniProt Q9BSJ8) | -0.0314 | -0.203
F13A1_P00488_410_CGPASVQAIK (UniProt P00488) | -0.223 | -0.133
EXOC5_O00471_236_QCQEGAYLR (UniProt O00471) | 0.0713 | 0.221
FAHD1_Q6P587_129_SFTASCPVSAFVPK (UniProt Q6P587) | 0.108 | 0.12
ESCO1_Q5FWF5_160_EQCSSTQSK (UniProt Q5FWF5) | 0.0524 | -0.229
FAM120B_Q96EK7_511_QEVPICTDPISK (UniProt Q96EK7) | -0.187 | 0.0894
EXOSC5_Q9NQT4_102_NTCEAVVLGTLHPR (UniProt Q9NQT4) | 0.112 | 0.423
EXOSC7_Q15024_189_DIELSDDPYDCIR (UniProt Q15024) | 0.163 | 0.261
F2_P00734_564_RGDACEGDSGGPFVMK (UniProt P00734) | -0.124 | -0.158

An excerpt of these results, as comma-separated lines:
Target,probe-labelled cysteine peptide fold change (10 µM),probe-labelled cysteine peptide fold change (50 µM)
EXOSC4_Q9NPD3_97_SCEMGLQLR (UniProt Q9NPD3),-0.0727,-0.136
EXOSC1_Q9Y3B2_73_ETESQLLPDVGAIVTCK (UniProt Q9Y3B2),-0.0568,0.13
FAHD1_Q6P587_129_SFTASCPVSAFVPK (UniProt Q6P587),0.108,0.12
FAM120B_Q96EK7_511_QEVPICTDPISK (UniProt Q96EK7),-0.187,0.0894
